# Measurements as given in publication PMC5433425 (PeerJ, 2017).
# The source gives many values for each of these; only a part stands here. Peptide text beside a SMILES is read from it. * marks the point of attachment. βNA = c1ccc2cc(N*)ccc2c1
# Assays:
# Test in all cases: EtBr efflux by real-time fluorometry
# [1] = test system: E. coli AG100tet; settings: 80 µM, + glucose
# [2] = test system: E. coli AG100; settings: 80 µM, + glucose
# [3] = test system: E. coli AG100A; settings: 20 µM
compound,measurement,setting,value
NC(N)=NCCC[C@H](NC(=O)[C@@H](N)Cc1ccccc1)C(=O)Nc1ccc2ccccc2c1 [PAβN] (H-Phe-Arg-βNA),"Fluorescence raw data, Channel Cycling A.530/585hp",[1]; cycle 4,2.196
same,"Fluorescence raw data, Channel Cycling A.530/585hp",[1]; cycle 5,2.0501
same,"Fluorescence raw data, Channel Cycling A.530/585hp",[1]; cycle 6,1.965
same,"Fluorescence raw data, Channel Cycling A.530/585hp",[1]; cycle 7,1.943
same,"Fluorescence raw data, Channel Cycling A.530/585hp",[1]; cycle 8,1.848
same,"Fluorescence raw data, Channel Cycling A.530/585hp",[1]; cycle 45,1.532
same,"Fluorescence raw data, Channel Cycling A.530/585hp",[1]; cycle 46,1.541
same,"Fluorescence raw data, Channel Cycling A.530/585hp",[1]; cycle 47,1.582
same,"Fluorescence raw data, Channel Cycling A.530/585hp",[1]; cycle 48,1.512
same,"Fluorescence raw data, Channel Cycling A.530/585hp",[1]; cycle 49,1.526
same,"Fluorescence raw data, Channel Cycling A.530/585hp",[1]; cycle 50,1.558
same,"Fluorescence raw data, Channel Cycling A.530/585hp",[1]; cycle 51,1.588
same,"Fluorescence raw data, Channel Cycling A.530/585hp",[1]; cycle 52,1.552
same,"Fluorescence raw data, Channel Cycling A.530/585hp",[1]; cycle 53,1.539
same,"Fluorescence raw data, Channel Cycling A.530/585hp",[1]; cycle 54,1.526
same,"Fluorescence raw data, Channel Cycling A.530/585hp",[1]; cycle 55,1.533
same,"Fluorescence raw data, Channel Cycling A.530/585hp",[1]; cycle 56,1.535
same,"Fluorescence raw data, Channel Cycling A.530/585hp",[1]; cycle 57,1.531
same,"Fluorescence raw data, Channel Cycling A.530/585hp",[1]; cycle 58,1.528
same,"Fluorescence raw data, Channel Cycling A.530/585hp",[1]; cycle 59,1.542
same,"Fluorescence raw data, Channel Cycling A.530/585hp",[1]; cycle 60,1.532
same,"Fluorescence raw data, Channel Cycling A.530/585hp",[1]; cycle 61,1.533
same,EtBr fluorescence (Channel Cycling A.530/585hp),[2]; cycle 4,1.534
same,EtBr fluorescence (Channel Cycling A.530/585hp),[2]; cycle 5,1.49
same,EtBr fluorescence (Channel Cycling A.530/585hp),[2]; cycle 6,1.506
same,EtBr fluorescence (Channel Cycling A.530/585hp),[2]; cycle 7,1.368
same,EtBr fluorescence (Channel Cycling A.530/585hp),[2]; cycle 8,1.336
same,EtBr fluorescence (Channel Cycling A.530/585hp),[2]; cycle 45,1.135
same,EtBr fluorescence (Channel Cycling A.530/585hp),[2]; cycle 46,1.139
same,EtBr fluorescence (Channel Cycling A.530/585hp),[2]; cycle 47,1.12
same,EtBr fluorescence (Channel Cycling A.530/585hp),[2]; cycle 48,1.128
same,EtBr fluorescence (Channel Cycling A.530/585hp),[2]; cycle 49,1.1417
same,EtBr fluorescence (Channel Cycling A.530/585hp),[2]; cycle 50,1.104
same,EtBr fluorescence (Channel Cycling A.530/585hp),[2]; cycle 51,1.146
same,EtBr fluorescence (Channel Cycling A.530/585hp),[2]; cycle 52,1.089
same,EtBr fluorescence (Channel Cycling A.530/585hp),[2]; cycle 53,1.097
same,EtBr fluorescence (Channel Cycling A.530/585hp),[2]; cycle 54,1.147
same,EtBr fluorescence (Channel Cycling A.530/585hp),[2]; cycle 55,1.091
same,EtBr fluorescence (Channel Cycling A.530/585hp),[2]; cycle 56,1.125
same,EtBr fluorescence (Channel Cycling A.530/585hp),[2]; cycle 57,1.116
same,EtBr fluorescence (Channel Cycling A.530/585hp),[2]; cycle 58,1.115
same,EtBr fluorescence (Channel Cycling A.530/585hp),[2]; cycle 59,1.141
same,EtBr fluorescence (Channel Cycling A.530/585hp),[2]; cycle 60,1.106
same,EtBr fluorescence (Channel Cycling A.530/585hp),[2]; cycle 61,1.089
same,"Fluorescence raw data, Channel Cycling A.530/585hp","[3]; cycle 1, + glucose",1.92
same,"Fluorescence raw data, Channel Cycling A.530/585hp","[3]; cycle 1, without glucose",1.976
same,"Fluorescence raw data, Channel Cycling A.530/585hp","[3]; cycle 2, + glucose",1.923
same,"Fluorescence raw data, Channel Cycling A.530/585hp","[3]; cycle 2, without glucose",1.9392
same,"Fluorescence raw data, Channel Cycling A.530/585hp","[3]; cycle 3, + glucose",1.838
same,"Fluorescence raw data, Channel Cycling A.530/585hp","[3]; cycle 3, without glucose",1.884
same,"Fluorescence raw data, Channel Cycling A.530/585hp","[3]; cycle 4, + glucose",1.837
same,"Fluorescence raw data, Channel Cycling A.530/585hp","[3]; cycle 4, without glucose",1.887
same,"Fluorescence raw data, Channel Cycling A.530/585hp","[3]; cycle 5, + glucose",1.792
same,"Fluorescence raw data, Channel Cycling A.530/585hp","[3]; cycle 5, without glucose",1.777
same,"Fluorescence raw data, Channel Cycling A.530/585hp","[3]; cycle 6, + glucose",1.728
same,"Fluorescence raw data, Channel Cycling A.530/585hp","[3]; cycle 6, without glucose",1.786
same,"Fluorescence raw data, Channel Cycling A.530/585hp","[3]; cycle 7, + glucose",1.71
same,"Fluorescence raw data, Channel Cycling A.530/585hp","[3]; cycle 7, without glucose",1.721
same,"Fluorescence raw data, Channel Cycling A.530/585hp","[3]; cycle 8, + glucose",1.698
same,"Fluorescence raw data, Channel Cycling A.530/585hp","[3]; cycle 8, without glucose",1.722
same,"Fluorescence raw data, Channel Cycling A.530/585hp","[3]; cycle 9, + glucose",1.721
same,"Fluorescence raw data, Channel Cycling A.530/585hp","[3]; cycle 9, without glucose",1.668
same,"Fluorescence raw data, Channel Cycling A.530/585hp","[3]; cycle 10, + glucose",1.665
same,"Fluorescence raw data, Channel Cycling A.530/585hp","[3]; cycle 10, without glucose",1.676
same,"Fluorescence raw data, Channel Cycling A.530/585hp","[3]; cycle 11, + glucose",1.65
same,"Fluorescence raw data, Channel Cycling A.530/585hp","[3]; cycle 11, without glucose",1.675
same,"Fluorescence raw data, Channel Cycling A.530/585hp","[3]; cycle 12, + glucose",1.6461
same,"Fluorescence raw data, Channel Cycling A.530/585hp","[3]; cycle 12, without glucose",1.631
same,"Fluorescence raw data, Channel Cycling A.530/585hp","[3]; cycle 13, + glucose",1.606
same,"Fluorescence raw data, Channel Cycling A.530/585hp","[3]; cycle 13, without glucose",1.632
same,"Fluorescence raw data, Channel Cycling A.530/585hp","[3]; cycle 14, + glucose",1.605
same,"Fluorescence raw data, Channel Cycling A.530/585hp","[3]; cycle 14, without glucose",1.566
same,"Fluorescence raw data, Channel Cycling A.530/585hp","[3]; cycle 15, + glucose",1.592
same,"Fluorescence raw data, Channel Cycling A.530/585hp","[3]; cycle 15, without glucose",1.586
same,"Fluorescence raw data, Channel Cycling A.530/585hp","[3]; cycle 16, + glucose",1.581
same,"Fluorescence raw data, Channel Cycling A.530/585hp","[3]; cycle 16, without glucose",1.5794
same,"Fluorescence raw data, Channel Cycling A.530/585hp","[3]; cycle 17, + glucose",1.665
same,"Fluorescence raw data, Channel Cycling A.530/585hp","[3]; cycle 17, without glucose",1.55
same,"Fluorescence raw data, Channel Cycling A.530/585hp","[3]; cycle 18, + glucose",1.591
same,"Fluorescence raw data, Channel Cycling A.530/585hp","[3]; cycle 18, without glucose",1.5743
same,"Fluorescence raw data, Channel Cycling A.530/585hp","[3]; cycle 19, + glucose",1.5963
same,"Fluorescence raw data, Channel Cycling A.530/585hp","[3]; cycle 19, without glucose",1.567
same,"Fluorescence raw data, Channel Cycling A.530/585hp","[3]; cycle 20, + glucose",1.545
